According to article PMC3902902:
No constants are given. Whether binding was seen depends on the method and setting. Binding seen in cells or lysates may run through a third protein. Some binding calls cover weakened binding; strength is not graded here. Where a sequence is shown, tags or fusion partners need not be part of it.

T1: AtSE (SERRATE) fused to a non-fluorescent fragment of EYFP for BiFC (A. thaliana) (UniProt Q9ZVD0)
T1 sequence: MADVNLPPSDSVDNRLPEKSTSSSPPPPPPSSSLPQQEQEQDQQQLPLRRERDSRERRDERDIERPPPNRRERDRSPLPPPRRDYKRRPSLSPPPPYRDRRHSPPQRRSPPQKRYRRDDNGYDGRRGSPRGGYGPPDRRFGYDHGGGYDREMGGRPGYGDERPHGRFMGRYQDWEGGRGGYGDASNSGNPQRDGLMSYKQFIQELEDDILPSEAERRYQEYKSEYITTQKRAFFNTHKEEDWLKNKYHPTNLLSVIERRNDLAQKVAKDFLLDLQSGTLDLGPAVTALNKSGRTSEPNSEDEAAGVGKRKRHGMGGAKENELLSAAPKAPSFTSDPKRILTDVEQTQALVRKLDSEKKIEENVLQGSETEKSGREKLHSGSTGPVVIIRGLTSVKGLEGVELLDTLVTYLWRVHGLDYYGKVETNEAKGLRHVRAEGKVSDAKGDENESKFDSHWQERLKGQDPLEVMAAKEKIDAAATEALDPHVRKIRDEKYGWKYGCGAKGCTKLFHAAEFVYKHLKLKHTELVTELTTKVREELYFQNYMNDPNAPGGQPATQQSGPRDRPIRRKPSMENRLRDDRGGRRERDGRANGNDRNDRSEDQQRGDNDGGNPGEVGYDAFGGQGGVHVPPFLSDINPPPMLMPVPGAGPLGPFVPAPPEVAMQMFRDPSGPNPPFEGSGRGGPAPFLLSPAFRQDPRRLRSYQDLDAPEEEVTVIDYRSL

T2: AtCBP80 fused with the N-terminal fragment of EYFP for BiFC (A. thaliana) (UniProt Q9SIU2)
T2 sequence: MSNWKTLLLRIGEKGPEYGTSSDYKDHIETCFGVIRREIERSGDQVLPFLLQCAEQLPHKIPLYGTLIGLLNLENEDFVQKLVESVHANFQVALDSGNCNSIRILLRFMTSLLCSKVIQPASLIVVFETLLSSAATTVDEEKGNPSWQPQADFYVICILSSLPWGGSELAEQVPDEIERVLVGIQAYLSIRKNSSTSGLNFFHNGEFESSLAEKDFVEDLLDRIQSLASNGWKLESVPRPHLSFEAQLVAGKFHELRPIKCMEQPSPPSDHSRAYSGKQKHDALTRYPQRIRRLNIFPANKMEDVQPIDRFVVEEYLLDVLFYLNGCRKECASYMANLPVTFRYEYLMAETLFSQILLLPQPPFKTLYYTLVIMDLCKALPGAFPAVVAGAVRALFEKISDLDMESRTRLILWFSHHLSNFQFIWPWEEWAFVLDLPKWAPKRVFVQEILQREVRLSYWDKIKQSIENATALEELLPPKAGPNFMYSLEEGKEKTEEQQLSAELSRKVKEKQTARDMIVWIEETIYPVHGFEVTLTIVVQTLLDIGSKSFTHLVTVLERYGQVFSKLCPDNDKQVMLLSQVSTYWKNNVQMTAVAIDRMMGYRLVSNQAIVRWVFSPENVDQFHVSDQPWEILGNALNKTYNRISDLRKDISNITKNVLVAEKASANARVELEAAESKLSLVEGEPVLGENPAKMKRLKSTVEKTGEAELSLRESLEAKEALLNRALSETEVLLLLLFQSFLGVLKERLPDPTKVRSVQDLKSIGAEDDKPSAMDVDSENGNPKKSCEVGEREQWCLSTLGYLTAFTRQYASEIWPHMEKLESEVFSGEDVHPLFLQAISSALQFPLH

T3: AtHYL1:FLAG (A. thaliana) (UniProt O04492)
T3 sequence: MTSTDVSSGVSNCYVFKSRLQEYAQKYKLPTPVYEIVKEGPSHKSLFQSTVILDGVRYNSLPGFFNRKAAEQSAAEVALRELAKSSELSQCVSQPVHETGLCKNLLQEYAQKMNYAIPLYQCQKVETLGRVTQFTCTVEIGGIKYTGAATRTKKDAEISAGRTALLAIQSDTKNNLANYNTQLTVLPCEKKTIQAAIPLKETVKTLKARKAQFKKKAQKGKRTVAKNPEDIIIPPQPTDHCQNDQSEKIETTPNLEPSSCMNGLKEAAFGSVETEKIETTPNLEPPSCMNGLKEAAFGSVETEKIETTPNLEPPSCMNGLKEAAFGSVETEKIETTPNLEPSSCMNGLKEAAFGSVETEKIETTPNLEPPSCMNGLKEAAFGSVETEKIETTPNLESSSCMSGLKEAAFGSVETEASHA

T4: AtSE:FLAG (A. thaliana) (UniProt Q9ZVD0)
T4 sequence: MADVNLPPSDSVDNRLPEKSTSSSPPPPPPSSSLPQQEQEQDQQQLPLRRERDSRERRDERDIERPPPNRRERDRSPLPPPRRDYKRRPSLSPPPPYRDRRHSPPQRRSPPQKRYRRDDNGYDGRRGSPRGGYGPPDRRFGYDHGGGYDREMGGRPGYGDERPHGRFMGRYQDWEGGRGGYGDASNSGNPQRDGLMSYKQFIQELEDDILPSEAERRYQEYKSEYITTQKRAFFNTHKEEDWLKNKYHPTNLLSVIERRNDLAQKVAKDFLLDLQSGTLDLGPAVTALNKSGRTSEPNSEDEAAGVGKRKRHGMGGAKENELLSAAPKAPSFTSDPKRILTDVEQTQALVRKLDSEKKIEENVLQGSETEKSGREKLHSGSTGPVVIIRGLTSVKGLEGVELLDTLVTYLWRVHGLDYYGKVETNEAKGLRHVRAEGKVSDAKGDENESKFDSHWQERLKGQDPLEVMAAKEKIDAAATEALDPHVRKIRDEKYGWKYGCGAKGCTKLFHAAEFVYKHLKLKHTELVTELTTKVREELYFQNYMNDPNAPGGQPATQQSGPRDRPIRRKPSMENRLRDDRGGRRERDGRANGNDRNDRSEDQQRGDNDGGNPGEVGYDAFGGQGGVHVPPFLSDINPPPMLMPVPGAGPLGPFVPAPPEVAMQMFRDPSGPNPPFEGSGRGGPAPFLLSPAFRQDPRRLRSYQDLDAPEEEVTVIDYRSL


Tests used:
[1] = biological target: T1, AtSE (SERRATE) fused to a non-fluorescent fragment of EYFP for BiFC (A. thaliana); assay: split reporter; BiFC with complementary EYFP fragments; A. thaliana protoplasts (T87 suspension cells or rosette leaves) co-transfected; fluorescence analysed 20-35 h after transfection
[2] = biological target: T2, AtCBP80 fused with the N-terminal fragment of EYFP for BiFC (A. thaliana); assay: as above
[3] = biological target: T3, AtHYL1:FLAG (A. thaliana); assay: co-IP; nuclear protein lysate of 35-day leaves of transgenic plants, infiltrated with 1% formaldehyde; anti-FLAG magnetic beads overnight at 4°; washed four times with lysis buffer (300 mM NaCl, 0.75% Triton X-100, 0.15% SDS); western blot with anti-AtCBP20 and anti-AtCBP80
AtSE:FLAG (A. thaliana) = biological target: T4, AtSE:FLAG (A. thaliana); assay: as above

| binding [1] | binding [2] | binding [3] | binding (AtSE:FLAG (A. thaliana)) | Binder |
| --- | --- | --- | --- | --- |
| binds | binds | – | – | AtCBP20 fused to a non-fluorescent fragment of EYFP for BiFC (protein, UniProt Q9XFD1 1-257) MASLFKEQAKLSAYRDRRFSGTQEEFDEALRASTTVYIGNVSFYTTEEQLYELFSRAGEIKKIIMGLDKNTKTPCGFCFVLFYSREDTEDAVKYISGTILDDRPIRVDFDWGFQEGRQWGRGRSGGQVRDEYRTDYDPARGGYGKLVQKELEAQRQLVDYGTGSLGAYPQAAPTNYGNGRRGGGNYGQGGQNRHGRGDYHRKRQRDDDRYGRDNSRRNTDHESRRDTDSDMRPEKNPRFRESGDSDDDGEDDRKRRS |
| – | – | no binding | binds | AtCBP20 (endogenous, in plant nuclear lysate) (protein, UniProt Q9XFD1 1-257) MASLFKEQAKLSAYRDRRFSGTQEEFDEALRASTTVYIGNVSFYTTEEQLYELFSRAGEIKKIIMGLDKNTKTPCGFCFVLFYSREDTEDAVKYISGTILDDRPIRVDFDWGFQEGRQWGRGRSGGQVRDEYRTDYDPARGGYGKLVQKELEAQRQLVDYGTGSLGAYPQAAPTNYGNGRRGGGNYGQGGQNRHGRGDYHRKRQRDDDRYGRDNSRRNTDHESRRDTDSDMRPEKNPRFRESGDSDDDGEDDRKRRS |
